Reference: PubChem BioAssay AID256 (DTP/NCI, 2004)
The list is a part of this screen's results and no random one: it gathers tests that were run many times, whatever their T/C, doses with no T/C, and many T/C values between a quarter and a half above the control. Further doses and runs are listed elsewhere. T/C gives the treated animals as a percentage of the vehicle group. Some entries give survivors of the animals treated and no T/C: the source files T/C as zero there, which appears to mark a toxic dose or a test without result, not a measured value. Some survivor counts are full or nearly so, which does not show that the dose was tolerated: the source hardly ever lists a survival T/C far under the control, and the zero likely stands for such cases as well. Survivors were counted at the toxicity check, usually on the fifth day, unless a day is given; later deaths do not show. Schedule codes are those of the source, read here as Q, the interval in days (D) or hours (H), X, the number of doses. Some schedule codes hold Z or #, which are not explained here. Some entries were tested several times; the results are listed from low to high. For survival time, the PubChem record calls one and a half times the control and up active, and a quarter to a half above the control has no call in these data; cut-offs in other NCI protocols can differ. Some T/C values carry the count of animals alive at the toxicity check (mostly the fifth day); without a count, all were alive then.

Test system: CD2F1 mice, L1210 leukemia ip, survival T/C
Assay: NCI In Vivo Anticancer Drug Screen. Data for tumor model L1210 Leukemia (intraperitoneal) in CD2F1 (CDF1) mice
Details: higher T/C = longer survival
In short: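 Antitumor effect is scored in animals hosting a serially transplanted tumor. Values compare compound-dosed animals against vehicle-only controls as a simple quotient.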

[1] = T/C endpoint: mean survival time, dose: 400.0 mg/kg/injection, schedule: Q04DX002 (ip), vehicle: saline with Tween-80
[2] = T/C endpoint: median survival time, dose: 50.0 mg/kg/injection, schedule: Q01DX009 (ip), vehicle: saline with Tween-80
[3] = T/C endpoint: median survival time, dose: 100.0 mg/kg/injection, schedule: Q01DX009 (ip), vehicle: saline with Tween-80
[4] = T/C endpoint: mean survival time, dose: 100.0 mg/kg/injection, schedule: Q01DX009 (ip), vehicle: saline with Tween-80
[5] = T/C endpoint: mean survival time, dose: 200.0 mg/kg/injection, schedule: Q01DX009 (ip), vehicle: saline with Tween-80
[6] = T/C endpoint: mean survival time, dose: 400.0 mg/kg/injection, schedule: Q01DX009 (ip), vehicle: saline with Tween-80
[7] = T/C endpoint: mean survival time, dose: 150.0 mg/kg/injection, schedule: Q01DX001 (ip), vehicle: saline
[8] = T/C endpoint: mean survival time, dose: 300.0 mg/kg/injection, schedule: Q01DX001 (ip), vehicle: saline

In the case of `CC(C)(C)OOC(=O)c1ccccn1`, the survivor count [1] is reported as 0 of 3.

`OCCNCc1ccc(Cl)cc1` was tested, and the survivor count (T/C endpoint: mean survival time, dose: 400.0 mg/kg/injection, schedule: Q04DX003 (ip), vehicle: saline with Tween-80) was 4 of 6.

`COc1cccc2c1C(=O)c1c(O)c3c(c(O)c1C2=O)CC(O)(/C(C)=N/NC(=O)CCCC(=O)N/N=C(\C)C1(O)Cc2c(O)c4c(c(O)c2C(OC2CC(N)C(O)C(C)O2)C1)C(=O)c1c(OC)cccc1C4=O)CC3OC1CC(N)C(O)C(C)O1` (stereo not given) was tested, and the survivor count (T/C endpoint: mean survival time, dose: 6.25 mg/kg/injection, schedule: Q01DX009 (ip), vehicle: water) was 0 of 6.

In the case of `COC(C)(C)O/N=C(\C[n+]1ccccc1)c1ccccc1`, the survivor count (T/C endpoint: mean survival time, dose: 100.0 mg/kg/injection, schedule: Q01DX009 (ip), vehicle: water) is reported as 0 of 6 and the survivor count (T/C endpoint: mean survival time, dose: 200.0 mg/kg/injection, schedule: Q01DX009 (ip), vehicle: water) is reported as 0 of 6.

In the case of `CCOC(=O)C(CCC(O)C#N)(NC(C)=O)C(=O)OCC` (stereo not given), the survivor count (T/C endpoint: mean survival time, dose: 100.0 mg/kg/injection, schedule: Q04DX002 (ip), vehicle: saline with Tween-80) is reported as 0 of 3, the survivor count (T/C endpoint: mean survival time, dose: 200.0 mg/kg/injection, schedule: Q04DX002 (ip), vehicle: saline with Tween-80) is reported as 0 of 3 and the survivor count [1] is reported as 0 of 3.

In the case of `CC(C)c1cc(C(=O)O)c(O)c(C(C)C)c1.CC(C)c1cc(C(=O)O)c(O)c(C(C)C)c1.[Cu]`, the survivor count [2] is reported as 3 of 6 and the survivor count [3] is reported as 0 of 6.

For `COc1cc(C=O)ccc1OC(=O)Nc1cc([N+](=O)[O-])ccc1Cl`, the T/C [4] was 105, 106, 109, 113 % of control, the T/C [5] was 103, 109, 112 % of control and the survivor count [5] was 2 of 3. For the same molecule, the survivor count [6] was 0 of 3 and 1 of 6.

`O=C(Oc1ccccc1)c1cc(O)c(O)c(O)c1` was tested, and the survivor count (T/C endpoint: median survival time, dose: 400.0 mg/kg/injection, schedule: Q01DX009 (ip), vehicle: saline with Tween-80) was 3 of 6.

For `O=C1OC(=O)c2c1ccc1ccc(Cl)cc21`, the survivor count [6] was 1 of 6.

In the case of `CCC(C(=O)OCCNC1CCCCC1)c1ccccc1` (stereo not given), the survivor count [7] is reported as 3 of 6 and the survivor count [8] is reported as 0 of 6.

With `CCOC(=O)c1ccc(OC(=O)Nc2cc(C)ccc2C)cc1` the T/C [4] was 98, 103, 113 [5 of 6 alive], 114 % of control, the T/C [5] was 86, 100 [4 of 6 alive], 103, 114 % of control and the survivor count [6] was 1 of 6 and 1 of 3.

For `COc1ccc([I+]c2cccc(Cl)c2)cc1Cl`, the survivor count [2] was 1 of 6 and the survivor count [3] was 0 of 6.

For `O=C1CC2OCCC3=CN4CCC56c7ccccc7N1C5C2C3CC46` (stereo not given), the survivor count (T/C endpoint: mean survival time, dose: 5.0 mg/kg/injection, schedule: Q01DX001 (ip), vehicle: other) was 0 of 6.

In the case of `COc1ccc2c(c1)N(CCC1CCCCN1C)c1ccccc1S2` (stereo not given), the T/C (T/C endpoint: mean survival time, dose: 50.0 mg/kg/injection, schedule: Q04DX003 (ip), vehicle: saline) is reported as 132 % of control.

In the case of `CCO/C(=C/[S+](C)C)c1ccccc1`, the survivor count (T/C endpoint: mean survival time, dose: 75.0 mg/kg/injection, schedule: Q01DX001 (ip), vehicle: saline) is reported as 0 of 6, the survivor count [7] is reported as 0 of 6 and the survivor count [8] is reported as 0 of 6.

For `CO[C@H](C(=O)[C@@H](O)[C@@H](C)O)[C@@H]1Cc2cc3cc(OC4CC(OC5CC(O)C(O)C(C)O5)C(O)C(C)O4)c(C)c(O)c3c(O)c2C(=O)[C@H]1OC1CC(OC2CC(OC3CC(C)(O)C(O)C(C)O3)C(O)C(C)O2)C(O)C(C)O1` (stereo not given in full), the survivor count (T/C endpoint: mean survival time, dose: 1.0 mg/kg/injection, schedule: Q01DX Z (ip), vehicle: saline) was 5 of 6, the survivor count (T/C endpoint: mean survival time, dose: 2.0 mg/kg/injection, schedule: Q01DX009 (ip), vehicle: saline) was 0 of 6 and the survivor count (T/C endpoint: mean survival time, dose: 2.0 mg/kg/injection, schedule: Q01DX Z (ip), vehicle: saline) was 0 of 6. For the same molecule, the survivor count (T/C endpoint: mean survival time, dose: 4.0 mg/kg/injection, schedule: Q01DX Z (ip), vehicle: saline) was 0 of 6.

For `CCCc1ccc(C(C)=O)cc1`, the survivor count (T/C endpoint: mean survival time, dose: 300.0 mg/kg/injection, schedule: Q04DX002 (ip), vehicle: saline with Tween-80) was 1 of 3.

With `CCC1=[N+](C)c2ccccc2C1(C)C` the survivor count (T/C endpoint: mean survival time, dose: 200.0 mg/kg/injection, schedule: Q04DX003 (ip), vehicle: saline) was 0 of 3 and the survivor count (T/C endpoint: mean survival time, dose: 400.0 mg/kg/injection, schedule: Q04DX003 (ip), vehicle: saline) was 0 of 3.
